Experimental findings from article PMC8636641 are described below.

Amino acid sequences for entries named in this document (tags omitted).
UniProt Q9Y294: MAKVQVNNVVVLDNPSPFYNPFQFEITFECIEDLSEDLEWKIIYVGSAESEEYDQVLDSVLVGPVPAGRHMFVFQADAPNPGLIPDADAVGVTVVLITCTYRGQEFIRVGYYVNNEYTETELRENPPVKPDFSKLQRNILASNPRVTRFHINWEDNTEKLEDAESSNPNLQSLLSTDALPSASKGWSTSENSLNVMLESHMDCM
UniProt Q9NYF8: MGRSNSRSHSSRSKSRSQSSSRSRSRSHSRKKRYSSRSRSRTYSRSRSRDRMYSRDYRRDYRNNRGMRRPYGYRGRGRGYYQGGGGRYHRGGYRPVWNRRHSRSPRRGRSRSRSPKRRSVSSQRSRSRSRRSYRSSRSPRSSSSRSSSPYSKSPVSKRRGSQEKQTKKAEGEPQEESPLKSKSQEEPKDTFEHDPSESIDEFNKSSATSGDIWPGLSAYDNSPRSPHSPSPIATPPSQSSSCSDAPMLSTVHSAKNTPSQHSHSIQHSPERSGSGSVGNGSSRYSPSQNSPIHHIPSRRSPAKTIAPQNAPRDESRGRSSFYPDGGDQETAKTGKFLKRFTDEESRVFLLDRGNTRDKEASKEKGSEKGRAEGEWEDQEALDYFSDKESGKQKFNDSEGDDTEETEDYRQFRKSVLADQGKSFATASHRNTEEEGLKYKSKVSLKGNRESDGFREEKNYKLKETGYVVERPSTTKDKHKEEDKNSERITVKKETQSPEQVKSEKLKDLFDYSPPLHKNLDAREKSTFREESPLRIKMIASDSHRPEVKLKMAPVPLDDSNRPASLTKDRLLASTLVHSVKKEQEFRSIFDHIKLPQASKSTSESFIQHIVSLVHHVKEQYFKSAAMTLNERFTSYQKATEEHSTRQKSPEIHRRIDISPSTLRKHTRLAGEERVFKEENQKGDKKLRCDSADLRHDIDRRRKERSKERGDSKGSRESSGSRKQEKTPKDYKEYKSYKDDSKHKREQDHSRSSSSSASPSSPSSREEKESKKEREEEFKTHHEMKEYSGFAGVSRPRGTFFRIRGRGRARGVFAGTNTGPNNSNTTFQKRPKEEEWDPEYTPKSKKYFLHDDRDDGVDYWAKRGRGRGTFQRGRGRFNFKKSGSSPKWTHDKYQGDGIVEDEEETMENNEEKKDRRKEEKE
UniProt Q13555: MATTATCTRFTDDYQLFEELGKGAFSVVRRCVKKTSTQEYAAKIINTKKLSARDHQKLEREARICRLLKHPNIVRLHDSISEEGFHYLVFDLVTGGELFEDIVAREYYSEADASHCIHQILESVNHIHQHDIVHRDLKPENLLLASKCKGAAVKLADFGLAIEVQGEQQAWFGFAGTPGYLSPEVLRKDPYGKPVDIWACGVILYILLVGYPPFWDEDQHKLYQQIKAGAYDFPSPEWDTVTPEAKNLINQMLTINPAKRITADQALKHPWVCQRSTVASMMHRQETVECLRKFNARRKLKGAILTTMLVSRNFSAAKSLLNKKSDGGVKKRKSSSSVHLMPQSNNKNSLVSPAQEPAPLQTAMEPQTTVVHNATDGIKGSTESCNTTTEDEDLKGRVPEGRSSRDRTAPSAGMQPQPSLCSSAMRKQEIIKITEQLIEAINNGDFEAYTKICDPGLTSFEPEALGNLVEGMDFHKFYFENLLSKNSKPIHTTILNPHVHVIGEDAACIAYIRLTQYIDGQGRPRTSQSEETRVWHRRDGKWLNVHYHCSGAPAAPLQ
UniProt Q9BUL8: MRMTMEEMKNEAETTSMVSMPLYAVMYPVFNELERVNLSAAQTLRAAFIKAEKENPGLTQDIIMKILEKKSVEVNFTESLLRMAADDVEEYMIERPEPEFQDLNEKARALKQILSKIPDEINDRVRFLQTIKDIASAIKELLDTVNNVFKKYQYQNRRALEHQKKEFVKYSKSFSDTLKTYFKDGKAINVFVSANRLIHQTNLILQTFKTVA
UniProt P19474: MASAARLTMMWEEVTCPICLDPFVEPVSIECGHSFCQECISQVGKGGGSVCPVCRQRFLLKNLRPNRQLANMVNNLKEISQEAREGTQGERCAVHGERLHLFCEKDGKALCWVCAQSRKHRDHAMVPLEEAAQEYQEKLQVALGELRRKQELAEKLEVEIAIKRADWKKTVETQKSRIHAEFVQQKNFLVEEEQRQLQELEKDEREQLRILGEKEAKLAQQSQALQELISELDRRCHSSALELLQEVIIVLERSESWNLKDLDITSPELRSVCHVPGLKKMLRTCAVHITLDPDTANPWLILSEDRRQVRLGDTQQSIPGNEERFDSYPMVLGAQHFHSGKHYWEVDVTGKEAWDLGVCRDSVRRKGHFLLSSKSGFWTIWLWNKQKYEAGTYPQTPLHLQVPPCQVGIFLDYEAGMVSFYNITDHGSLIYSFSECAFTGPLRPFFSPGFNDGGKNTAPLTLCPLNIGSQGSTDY
UniProt Q9UPU5: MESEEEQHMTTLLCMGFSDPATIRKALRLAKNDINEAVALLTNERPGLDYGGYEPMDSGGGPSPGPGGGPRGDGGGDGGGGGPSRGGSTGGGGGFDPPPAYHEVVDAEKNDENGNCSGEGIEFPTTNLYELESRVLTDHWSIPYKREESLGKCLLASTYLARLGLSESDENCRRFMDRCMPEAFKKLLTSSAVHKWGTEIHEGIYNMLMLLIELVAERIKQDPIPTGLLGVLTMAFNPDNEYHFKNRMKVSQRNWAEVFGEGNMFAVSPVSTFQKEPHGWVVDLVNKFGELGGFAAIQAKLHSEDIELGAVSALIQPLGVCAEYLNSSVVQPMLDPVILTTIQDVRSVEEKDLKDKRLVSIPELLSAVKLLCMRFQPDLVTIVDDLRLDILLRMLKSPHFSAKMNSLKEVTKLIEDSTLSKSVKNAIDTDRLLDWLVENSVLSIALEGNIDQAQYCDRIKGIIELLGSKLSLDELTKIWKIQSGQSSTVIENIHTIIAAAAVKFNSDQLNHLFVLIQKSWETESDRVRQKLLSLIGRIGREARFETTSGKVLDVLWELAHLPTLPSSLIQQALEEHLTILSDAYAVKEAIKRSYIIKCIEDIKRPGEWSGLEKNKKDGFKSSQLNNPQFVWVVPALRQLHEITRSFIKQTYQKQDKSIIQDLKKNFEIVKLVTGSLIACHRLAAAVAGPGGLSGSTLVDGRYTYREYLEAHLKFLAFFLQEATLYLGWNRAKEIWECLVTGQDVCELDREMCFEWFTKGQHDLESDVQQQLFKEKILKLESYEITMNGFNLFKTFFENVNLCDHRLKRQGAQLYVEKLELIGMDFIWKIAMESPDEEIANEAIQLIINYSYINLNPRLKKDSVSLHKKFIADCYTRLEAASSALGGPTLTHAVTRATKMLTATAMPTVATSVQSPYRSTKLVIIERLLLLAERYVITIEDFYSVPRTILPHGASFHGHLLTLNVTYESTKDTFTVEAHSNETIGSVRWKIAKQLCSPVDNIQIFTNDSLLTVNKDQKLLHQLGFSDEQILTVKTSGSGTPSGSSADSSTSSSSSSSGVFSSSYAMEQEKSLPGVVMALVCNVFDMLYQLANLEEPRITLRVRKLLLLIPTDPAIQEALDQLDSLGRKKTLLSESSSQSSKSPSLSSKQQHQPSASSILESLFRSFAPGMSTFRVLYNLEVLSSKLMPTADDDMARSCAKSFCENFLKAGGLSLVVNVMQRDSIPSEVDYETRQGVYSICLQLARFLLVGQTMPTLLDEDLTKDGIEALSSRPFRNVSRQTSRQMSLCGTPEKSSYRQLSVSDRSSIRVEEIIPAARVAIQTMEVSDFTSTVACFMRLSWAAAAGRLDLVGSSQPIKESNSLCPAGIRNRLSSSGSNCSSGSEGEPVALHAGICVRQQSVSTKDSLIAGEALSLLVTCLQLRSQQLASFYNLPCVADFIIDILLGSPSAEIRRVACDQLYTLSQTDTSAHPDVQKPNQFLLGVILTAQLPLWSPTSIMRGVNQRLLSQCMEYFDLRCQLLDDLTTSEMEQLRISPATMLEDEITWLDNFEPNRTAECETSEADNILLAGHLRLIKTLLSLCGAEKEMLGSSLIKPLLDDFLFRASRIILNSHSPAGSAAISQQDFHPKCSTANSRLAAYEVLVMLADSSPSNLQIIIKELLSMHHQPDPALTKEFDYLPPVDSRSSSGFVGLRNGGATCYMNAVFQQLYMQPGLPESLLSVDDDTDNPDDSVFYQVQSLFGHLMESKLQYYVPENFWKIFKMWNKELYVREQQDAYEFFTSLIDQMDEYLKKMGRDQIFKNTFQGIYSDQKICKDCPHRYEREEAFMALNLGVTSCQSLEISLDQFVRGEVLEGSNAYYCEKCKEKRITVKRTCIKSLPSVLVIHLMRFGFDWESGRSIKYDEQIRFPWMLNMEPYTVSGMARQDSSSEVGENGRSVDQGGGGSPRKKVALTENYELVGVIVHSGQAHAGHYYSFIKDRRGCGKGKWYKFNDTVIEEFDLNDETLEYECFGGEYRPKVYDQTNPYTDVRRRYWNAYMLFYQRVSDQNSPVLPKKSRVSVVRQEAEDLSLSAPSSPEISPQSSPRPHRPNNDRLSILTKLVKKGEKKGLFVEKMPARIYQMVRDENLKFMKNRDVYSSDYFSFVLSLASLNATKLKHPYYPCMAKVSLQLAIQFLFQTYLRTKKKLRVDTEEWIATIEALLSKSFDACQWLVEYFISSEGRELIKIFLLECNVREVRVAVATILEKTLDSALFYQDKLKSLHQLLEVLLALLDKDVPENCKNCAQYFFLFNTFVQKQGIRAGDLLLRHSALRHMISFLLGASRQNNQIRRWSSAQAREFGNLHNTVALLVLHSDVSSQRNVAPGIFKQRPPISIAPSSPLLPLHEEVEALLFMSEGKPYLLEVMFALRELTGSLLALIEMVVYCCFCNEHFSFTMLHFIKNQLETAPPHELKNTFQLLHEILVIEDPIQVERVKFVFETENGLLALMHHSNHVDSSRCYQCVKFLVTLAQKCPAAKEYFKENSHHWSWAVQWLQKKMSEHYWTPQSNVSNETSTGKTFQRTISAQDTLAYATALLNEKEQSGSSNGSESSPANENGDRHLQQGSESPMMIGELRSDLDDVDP
UniProt P31946: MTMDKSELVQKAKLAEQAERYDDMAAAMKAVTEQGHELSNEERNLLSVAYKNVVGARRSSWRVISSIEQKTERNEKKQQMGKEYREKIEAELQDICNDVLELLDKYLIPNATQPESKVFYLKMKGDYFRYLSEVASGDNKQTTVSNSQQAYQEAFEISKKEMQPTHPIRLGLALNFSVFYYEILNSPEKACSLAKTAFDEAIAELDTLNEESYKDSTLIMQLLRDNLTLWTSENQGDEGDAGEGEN

Assay [1] has as its target T1, C-terminal transmembrane domain deleted V5-tagged wild-type rat TAOK2 (amino acids 1-993) (rat) (UniProt Q9JLS3).
T1 sequence: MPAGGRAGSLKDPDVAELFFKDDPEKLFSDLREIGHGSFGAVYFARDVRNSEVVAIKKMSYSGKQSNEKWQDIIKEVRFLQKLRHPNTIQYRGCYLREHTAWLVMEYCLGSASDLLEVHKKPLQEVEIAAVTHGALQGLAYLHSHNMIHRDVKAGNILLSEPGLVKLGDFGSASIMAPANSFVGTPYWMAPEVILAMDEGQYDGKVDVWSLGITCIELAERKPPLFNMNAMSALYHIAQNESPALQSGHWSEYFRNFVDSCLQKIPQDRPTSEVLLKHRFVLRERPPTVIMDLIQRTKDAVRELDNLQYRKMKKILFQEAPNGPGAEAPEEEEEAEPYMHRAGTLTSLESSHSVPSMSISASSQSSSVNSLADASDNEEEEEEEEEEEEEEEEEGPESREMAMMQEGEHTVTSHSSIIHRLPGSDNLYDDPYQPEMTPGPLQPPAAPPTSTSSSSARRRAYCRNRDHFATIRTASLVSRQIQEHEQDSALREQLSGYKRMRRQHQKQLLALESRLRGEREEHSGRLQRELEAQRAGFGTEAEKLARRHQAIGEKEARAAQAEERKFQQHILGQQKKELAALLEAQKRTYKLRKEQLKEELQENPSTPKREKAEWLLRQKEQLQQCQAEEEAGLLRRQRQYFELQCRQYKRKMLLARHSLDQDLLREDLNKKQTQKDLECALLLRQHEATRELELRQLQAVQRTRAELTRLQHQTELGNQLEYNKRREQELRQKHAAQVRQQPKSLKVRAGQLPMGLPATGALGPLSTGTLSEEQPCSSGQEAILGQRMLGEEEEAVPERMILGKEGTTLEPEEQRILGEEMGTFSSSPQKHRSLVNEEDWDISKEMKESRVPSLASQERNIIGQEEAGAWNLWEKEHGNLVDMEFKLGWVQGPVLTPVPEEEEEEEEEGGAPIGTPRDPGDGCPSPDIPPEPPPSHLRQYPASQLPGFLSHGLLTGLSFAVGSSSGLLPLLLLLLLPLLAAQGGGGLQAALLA
In words: affinity purification with mass spectrometry; V5-tagged rat TAOK2 variants (1-993) expressed in HEK293T cells, cells mock-treated or transfected with 5 ug/ml poly(I:C) for 4 h; lysate in TAP lysis buffer (50 mM Tris-HCl pH 7.5, 100 mM NaCl, 1.5 mM MgCl2, 0.2% NP-40, 5% glycerol, Sm DNase); anti-V5-agarose, 3 h at 4 C; LC-MS/MS, enrichment against combined control baits EGFP and PGAM5.

Assay [2] addresses T2, rat TAOK2 D151A (amino acids 1-993, V5-tagged; mutation in the active site of the kinase domain) (rat) (UniProt Q9JLS3).
T2 sequence: T1 sequence with D151A
The assay is described as above.

Substitutions are numbered along the chain they refer to. These are yes or no findings as the source states them, for the method shown. In cells and extracts the contact can be indirect. These calls come from enrichment with a bait or labelling near it, and not all partners need be listed. Tags and fused reporters may be left off the sequences shown.

Take ASF1A (from UniProt Q9Y294 1-204): the binding entry in assay [1] is recorded as “binds”. Turning to BCLAF1 (from UniProt Q9NYF8 1-920), the binding result in assay [1] is “binds”.

Regarding CAMK2G (from UniProt Q13555 1-558), the binding entry in assay [2] and in assay [1] was “binds” throughout.

With CHD8 (from UniProt Q9HCK8 1-2581), in assay [1], the binding result was “binds”. For the molecule LRRFIP (human (endogenous in HEK293T)), the binding result in assay [1] is reported as “binds”.

Regarding PDCD10 (from UniProt Q9BUL8 1-212), the binding entry in assay [1] is “binds”. The same measure, in the same setting: for TRIM21 (from UniProt P19474 1-475) the value was “binds”. As for USP24 (from UniProt Q9UPU5 1-2620), the binding entry in assay [1] was “binds”. For the molecule YWHAB (from UniProt P31946 1-246), the binding entry in assay [2] and in assay [1] was “binds” each time.

B1: BAG1 (protein, UniProt Q99933 1-345)
chain: MAQRGGARRPRGDRERLGSRLRALRPGREPRQSEPPAQRGPPPSGRPPARSTASGHDRPTRGAAAGARRPRMKKKTRRRSTRSEELTRSEELTLSEEATWSEEATQSEEATQGEEMNRSQEVTRDEESTRSEEVTREEMAAAGLTVTVTHSNEKHDLHVTSQQGSSEPVVQDLAQVVEEVIGVPQSFQKLIFKGKSLKEMETPLSALGIQDGCRVMLIGKKNSPQEEVELKKLKHLEKSVEKIADQLEELNKELTGIQQGFLPKDLQAEALCKLDRRVKATIEQFMKILEEIDTLILPENFKDSRLKRKGLVKKVQAFLAECDTVEQNICQETERLQSTNFALAE
Consider B1, for which the binding entry in assay [1] is listed as “binds”.

B2: BEND3 (protein, UniProt Q5T5X7 1-828)
chain: MNSTEFTEDVEEVLKSITVKVETEAEDAALDCSVNSRTSEKHSVDSVLTALQDSSKRKQLVSDGLLDSVPGVKRRRLIPEALLAGMRNRENSSPCQGNGEQAGRGRSLGNVWPGEEEPCNDATTPSYKKPLYGISHKIMEKKNPPSGDLLNVYELFEKANASNSPSSLRLLNEPQKRDCGSTGAGTDNDPNIYFLIQKMFYMLNTLTSNMSQLHSKVDLLSLEVSRIKKQVSPTEMVAKFQPPPEYQLTAAELKQIVDQSLSGGDLACRLLVQLFPELFSDVDFSRGCSACGFAAKRKLESLHLQLIRNYVEVYYPSVKDTAVWQAECLPQLNDFFSRFWAQREMEDSQPSGQVASFFEAEQVDPGHFLDNKDQEEALSLDRSSTIASDHVVDTQDLTEFLDEASSPGEFAVFLLHRLFPELFDHRKLGEQYSCYGDGGKQELDPQRLQIIRNYTEIYFPDMQEEEAWLQQCAQRINDELEGLGLDAGSEGDPPRDDCYDSSSLPDDISVVKVEDSFEGERPGRRSKKIWLVPIDFDKLEIPQPDFEVPGADCLLSKEQLRSIYESSLSIGNFASRLLVHLFPELFTHENLRKQYNCSGSLGKKQLDPSRIKLIRHYVQLLYPRAKNDRVWTLEFVGKLDERCRRRDTEQRRSYQQQRKVHVPGPECRDLTSYAINPERFREEFEGPPLPPERSSKDFCKIPLDELVVPSPDFPVPSPYLLSDKEVREIVQQSLSVGNFAARLLVRLFPELFTAENLRLQYNHSGACNKKQLDPTRLRLIRHYVEAVYPVEKMEEVWHYECIPSIDERCRRPNRKKCDILKKAKKVEK
Regarding B2, the binding result in assay [1] is “binds”.

B3: BRAP (protein, UniProt Q7Z569 1-592)
chain: MSVSLVVIRLELAEHSPVPAGFGFSAAAGEMSDEEIKKTTLASAVACLEGKSPGEKVAIIHQHLGRREMTDVIIETMKSNPDELKTTVEERKSSEASPTAQRSKDHSKECINAAPDSPSKQLPDQISFFSGNPSVEIVHGIMHLYKTNKMTSLKEDVRRSAMLCILTVPAAMTSHDLMKFVAPFNEVIEQMKIIRDSTPNQYMVLIKFRAQADADSFYMTCNGRQFNSIEDDVCQLVYVERAEVLKSEDGASLPVMDLTELPKCTVCLERMDESVNGILTTLCNHSFHSQCLQRWDDTTCPVCRYCQTPEPVEENKCFECGVQENLWICLICGHIGCGRYVSRHAYKHFEETQHTYAMQLTNHRVWDYAGDNYVHRLVASKTDGKIVQYECEGDTCQEEKIDALQLEYSYLLTSQLESQRIYWENKIVRIEKDTAEEINNMKTKFKETIEKCDNLEHKLNDLLKEKQSVERKCTQLNTKVAKLTNELKEEQEMNKCLRANQVLLQNKLKEEERVLKETCDQKDLQITEIQEQLRDVMFYLETQQKINHLPAETRQEIQEGQINIAMASASSPASSGGSGKLPSRKGRSKRGK
As to B3, the binding entry in assay [1] is listed as “binds”.

B4: WDR83 (protein, UniProt Q9BRX9 1-315)
chain: MAFPEPKPRPPELPQKRLKTLDCGQGAVRAVRFNVDGNYCLTCGSDKTLKLWNPLRGTLLRTYSGHGYEVLDAAGSFDNSSLCSGGGDKAVVLWDVASGQVVRKFRGHAGKVNTVQFNEEATVILSGSIDSSIRCWDCRSRRPEPVQTLDEARDGVSSVKVSDHEILAGSVDGRVRRYDLRMGQLFSDYVGSPITCTCFSRDGQCTLVSSLDSTLRLLDKDTGELLGEYKGHKNQEYKLDCCLSERDTHVVSCSEDGKVFFWDLVEGALALALPVGSGVVQSLAYHPTEPCLLTAMGGSVQCWREEAYEAEDGAG
On to B4, for which the binding entry in assay [2] and in assay [1] was “binds” in each case.
